For this data set, the system named is C57BL/6J mice. Put plainly: Effect in model mice of diet-induced obesity (adipose tissue weights). It is filed as in vivo, mouse. Here is the method:
C57BL/6J mice (females, 8 weeks old) were freely accessible to a high fat/high sugar diet (Oriental Yeast Co., Ltd., Table 6) for 8 weeks to obtain dietary obese animals. By using a normal diet (Oriental Yeast Co. Ltd., Table 3) as a base feed, two types of feeds, i.e., a diet without any additives and with 0.5% curcumin, were prepared. Next, said mice were divided into 2 groups (7 animals per group), and each group was freely accessible to a diet without any additives (control group) or with 0.5% curcumin (curcumin group) for 4 weeks. After an overnight fasting, mice were subjected to abdominal section under ether anesthesia to collect blood from the abdominal aorta, and then sacrificed. Then, adipose tissues were collected from the tissues around uterus, kidney and mesentery, and their weights were determined. The sum of the weights of periuterine, perirenal and mesenteric adipose tissues was determined as the total amount of intra-abdominal adipose tissue.

Turning to `COc1cc(/C=C/C(=O)/C=C(O)/C=C/c2ccc(O)c(OC)c2)ccc1O` [Compound 1, Curcumin], the “Diet intake amount compared with control group” value is given as “no significant difference”. This compound also returned a Diet intake amount (diet-induced obese C57BL/6J mice, 0.5% curcumin diet for 4 weeks, mean ± SD) of 3.24 ± 0.55 g/day/animal.

The record behind these values is patent publication US7090874B2, “Ligand for peroxisome proliferator-activated receptor” (Kaneka Corporation, priority 2001, dated 2006).
